Reference: the supplement of paper PMC6411743
± gives the standard deviation of the averaged measurements. This is one part of the list.

Sequences of proteins named here, by UniProt entry; tags and fusion partners are left off. A change or cut given only in a name is not applied to a line headed by its entry.
UniProt Q99707: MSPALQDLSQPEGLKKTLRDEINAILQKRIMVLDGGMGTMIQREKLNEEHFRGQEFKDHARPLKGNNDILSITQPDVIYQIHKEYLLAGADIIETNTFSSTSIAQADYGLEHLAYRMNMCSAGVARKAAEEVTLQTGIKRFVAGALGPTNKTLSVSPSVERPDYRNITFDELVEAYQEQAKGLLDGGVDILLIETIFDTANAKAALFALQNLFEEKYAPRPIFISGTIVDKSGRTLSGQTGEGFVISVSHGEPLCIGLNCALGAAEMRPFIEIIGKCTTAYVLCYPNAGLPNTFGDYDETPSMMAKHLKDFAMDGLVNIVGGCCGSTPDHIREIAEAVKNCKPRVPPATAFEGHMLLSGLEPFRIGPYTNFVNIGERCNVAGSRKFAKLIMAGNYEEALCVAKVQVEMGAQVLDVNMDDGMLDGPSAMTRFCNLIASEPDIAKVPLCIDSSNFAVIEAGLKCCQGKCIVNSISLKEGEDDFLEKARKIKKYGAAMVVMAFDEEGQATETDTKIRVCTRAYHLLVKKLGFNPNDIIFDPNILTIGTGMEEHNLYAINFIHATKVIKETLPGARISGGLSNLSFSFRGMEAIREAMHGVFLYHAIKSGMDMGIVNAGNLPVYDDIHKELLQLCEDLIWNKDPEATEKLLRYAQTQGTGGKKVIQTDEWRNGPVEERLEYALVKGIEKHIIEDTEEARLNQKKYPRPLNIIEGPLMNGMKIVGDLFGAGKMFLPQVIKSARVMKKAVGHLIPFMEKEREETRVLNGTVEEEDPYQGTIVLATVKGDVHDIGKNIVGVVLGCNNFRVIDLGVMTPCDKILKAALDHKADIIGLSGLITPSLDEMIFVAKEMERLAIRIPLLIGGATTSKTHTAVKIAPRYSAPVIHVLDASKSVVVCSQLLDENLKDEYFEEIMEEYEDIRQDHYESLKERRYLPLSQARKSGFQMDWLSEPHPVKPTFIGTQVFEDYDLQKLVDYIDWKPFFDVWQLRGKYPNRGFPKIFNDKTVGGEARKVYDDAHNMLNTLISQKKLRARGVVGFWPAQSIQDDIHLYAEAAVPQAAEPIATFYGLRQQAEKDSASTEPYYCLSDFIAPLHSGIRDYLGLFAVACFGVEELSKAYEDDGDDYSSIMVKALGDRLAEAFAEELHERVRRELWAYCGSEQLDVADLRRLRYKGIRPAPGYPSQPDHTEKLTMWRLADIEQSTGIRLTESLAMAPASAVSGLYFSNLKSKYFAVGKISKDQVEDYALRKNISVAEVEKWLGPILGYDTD
UniProt Q9BXI6: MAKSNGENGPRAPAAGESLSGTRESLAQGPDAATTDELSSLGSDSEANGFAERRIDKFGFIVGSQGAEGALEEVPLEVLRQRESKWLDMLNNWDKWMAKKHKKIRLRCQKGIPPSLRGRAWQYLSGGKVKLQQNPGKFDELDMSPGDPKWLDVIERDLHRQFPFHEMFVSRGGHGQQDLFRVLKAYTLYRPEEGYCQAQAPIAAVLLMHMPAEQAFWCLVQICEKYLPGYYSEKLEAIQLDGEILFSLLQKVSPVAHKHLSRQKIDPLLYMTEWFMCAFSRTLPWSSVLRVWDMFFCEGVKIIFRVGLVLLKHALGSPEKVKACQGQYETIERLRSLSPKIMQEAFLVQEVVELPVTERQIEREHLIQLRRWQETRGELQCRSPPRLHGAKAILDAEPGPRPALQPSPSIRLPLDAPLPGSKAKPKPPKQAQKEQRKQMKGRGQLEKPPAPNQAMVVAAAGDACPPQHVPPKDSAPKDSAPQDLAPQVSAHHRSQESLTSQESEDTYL
UniProt Q9BV79: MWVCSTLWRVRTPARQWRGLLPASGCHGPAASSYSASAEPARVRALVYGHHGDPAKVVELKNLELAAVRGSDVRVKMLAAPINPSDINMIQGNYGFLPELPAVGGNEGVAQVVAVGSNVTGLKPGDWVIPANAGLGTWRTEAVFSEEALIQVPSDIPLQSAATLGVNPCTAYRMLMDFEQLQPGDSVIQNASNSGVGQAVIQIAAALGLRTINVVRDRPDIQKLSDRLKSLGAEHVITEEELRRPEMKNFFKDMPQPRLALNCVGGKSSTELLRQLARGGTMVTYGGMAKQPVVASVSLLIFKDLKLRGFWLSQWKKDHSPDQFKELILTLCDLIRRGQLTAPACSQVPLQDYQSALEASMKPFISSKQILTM
UniProt Q9BV81: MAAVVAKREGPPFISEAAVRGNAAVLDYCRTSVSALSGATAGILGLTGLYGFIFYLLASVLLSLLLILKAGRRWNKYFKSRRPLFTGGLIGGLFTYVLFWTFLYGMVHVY
UniProt Q99570, whole entry: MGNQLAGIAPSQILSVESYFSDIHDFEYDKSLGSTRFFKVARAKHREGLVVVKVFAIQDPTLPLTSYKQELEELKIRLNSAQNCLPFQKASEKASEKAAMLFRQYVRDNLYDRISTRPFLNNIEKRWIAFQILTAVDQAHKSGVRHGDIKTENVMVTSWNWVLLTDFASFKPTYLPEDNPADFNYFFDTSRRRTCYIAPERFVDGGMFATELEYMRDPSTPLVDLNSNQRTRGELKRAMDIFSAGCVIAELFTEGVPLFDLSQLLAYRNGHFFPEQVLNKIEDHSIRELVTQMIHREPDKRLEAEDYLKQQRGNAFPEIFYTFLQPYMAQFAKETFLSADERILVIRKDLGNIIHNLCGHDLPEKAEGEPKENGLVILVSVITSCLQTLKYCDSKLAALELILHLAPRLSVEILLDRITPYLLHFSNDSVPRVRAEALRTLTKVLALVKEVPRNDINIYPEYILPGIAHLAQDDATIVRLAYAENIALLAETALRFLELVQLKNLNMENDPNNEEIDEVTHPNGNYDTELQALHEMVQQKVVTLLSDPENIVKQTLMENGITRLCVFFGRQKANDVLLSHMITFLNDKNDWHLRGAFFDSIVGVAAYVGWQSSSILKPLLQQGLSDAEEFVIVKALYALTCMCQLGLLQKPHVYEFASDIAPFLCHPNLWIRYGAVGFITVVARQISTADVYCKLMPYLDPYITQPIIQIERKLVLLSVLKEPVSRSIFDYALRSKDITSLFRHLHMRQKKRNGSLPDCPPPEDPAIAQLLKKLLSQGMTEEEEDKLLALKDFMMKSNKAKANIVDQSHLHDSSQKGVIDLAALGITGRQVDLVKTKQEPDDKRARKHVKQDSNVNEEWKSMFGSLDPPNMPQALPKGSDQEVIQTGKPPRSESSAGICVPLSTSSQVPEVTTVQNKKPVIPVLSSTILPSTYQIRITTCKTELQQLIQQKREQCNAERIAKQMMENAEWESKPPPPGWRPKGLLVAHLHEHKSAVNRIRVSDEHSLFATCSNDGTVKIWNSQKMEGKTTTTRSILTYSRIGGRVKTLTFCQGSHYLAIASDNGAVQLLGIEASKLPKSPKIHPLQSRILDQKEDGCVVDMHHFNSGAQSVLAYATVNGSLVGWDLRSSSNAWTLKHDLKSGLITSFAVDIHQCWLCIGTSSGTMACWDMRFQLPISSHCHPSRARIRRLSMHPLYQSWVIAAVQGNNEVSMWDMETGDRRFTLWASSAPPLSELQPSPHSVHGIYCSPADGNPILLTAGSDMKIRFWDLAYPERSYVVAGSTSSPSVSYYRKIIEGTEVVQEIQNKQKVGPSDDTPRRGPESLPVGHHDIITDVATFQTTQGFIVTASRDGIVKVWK
UniProt Q96NC0: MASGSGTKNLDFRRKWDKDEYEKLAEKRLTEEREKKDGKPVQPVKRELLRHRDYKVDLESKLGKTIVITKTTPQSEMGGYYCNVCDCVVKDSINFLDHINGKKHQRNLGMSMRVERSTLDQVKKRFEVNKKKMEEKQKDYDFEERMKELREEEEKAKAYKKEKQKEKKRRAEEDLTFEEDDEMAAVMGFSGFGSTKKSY
UniProt Q99497, whole entry: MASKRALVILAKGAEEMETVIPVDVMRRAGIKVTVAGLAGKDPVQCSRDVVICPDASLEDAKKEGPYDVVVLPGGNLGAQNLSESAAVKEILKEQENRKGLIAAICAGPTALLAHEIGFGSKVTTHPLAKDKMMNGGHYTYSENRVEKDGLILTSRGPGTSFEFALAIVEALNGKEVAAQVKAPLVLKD
UniProt Q9BRX2, whole entry: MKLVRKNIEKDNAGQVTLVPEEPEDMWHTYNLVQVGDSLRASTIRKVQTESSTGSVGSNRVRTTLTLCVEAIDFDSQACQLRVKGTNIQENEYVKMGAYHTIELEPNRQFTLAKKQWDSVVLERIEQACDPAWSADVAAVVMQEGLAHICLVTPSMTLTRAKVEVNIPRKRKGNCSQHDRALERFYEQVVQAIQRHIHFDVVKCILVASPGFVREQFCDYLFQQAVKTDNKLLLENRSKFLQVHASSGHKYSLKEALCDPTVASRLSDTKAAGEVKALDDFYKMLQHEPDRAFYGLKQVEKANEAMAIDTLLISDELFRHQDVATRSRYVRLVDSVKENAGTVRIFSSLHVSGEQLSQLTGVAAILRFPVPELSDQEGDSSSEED
UniProt Q9BPX3, whole entry, looked up: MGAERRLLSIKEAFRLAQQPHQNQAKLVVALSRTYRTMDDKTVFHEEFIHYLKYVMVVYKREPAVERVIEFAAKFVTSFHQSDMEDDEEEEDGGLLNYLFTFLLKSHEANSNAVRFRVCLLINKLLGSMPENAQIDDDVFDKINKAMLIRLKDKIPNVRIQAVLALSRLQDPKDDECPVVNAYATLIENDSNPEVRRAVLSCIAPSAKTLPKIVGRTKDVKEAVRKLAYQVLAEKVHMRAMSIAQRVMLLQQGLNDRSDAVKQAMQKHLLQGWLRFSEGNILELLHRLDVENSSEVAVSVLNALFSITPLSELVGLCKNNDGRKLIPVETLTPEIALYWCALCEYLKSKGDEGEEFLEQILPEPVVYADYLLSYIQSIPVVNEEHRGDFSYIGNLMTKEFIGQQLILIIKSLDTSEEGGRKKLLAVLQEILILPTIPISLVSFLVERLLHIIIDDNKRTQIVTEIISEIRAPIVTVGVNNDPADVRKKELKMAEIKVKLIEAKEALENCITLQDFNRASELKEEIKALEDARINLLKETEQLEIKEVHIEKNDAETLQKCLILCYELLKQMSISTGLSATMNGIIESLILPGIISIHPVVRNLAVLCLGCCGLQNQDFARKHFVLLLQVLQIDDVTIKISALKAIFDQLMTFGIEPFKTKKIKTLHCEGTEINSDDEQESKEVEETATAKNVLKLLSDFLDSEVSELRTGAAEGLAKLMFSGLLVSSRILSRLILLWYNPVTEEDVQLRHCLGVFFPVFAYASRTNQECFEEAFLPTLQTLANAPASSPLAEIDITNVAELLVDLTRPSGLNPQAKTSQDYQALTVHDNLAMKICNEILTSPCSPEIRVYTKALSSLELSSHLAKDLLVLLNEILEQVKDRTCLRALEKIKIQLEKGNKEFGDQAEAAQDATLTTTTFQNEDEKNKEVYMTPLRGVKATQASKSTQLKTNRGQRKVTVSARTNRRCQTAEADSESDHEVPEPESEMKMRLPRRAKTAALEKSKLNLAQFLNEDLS
UniProt Q96R06: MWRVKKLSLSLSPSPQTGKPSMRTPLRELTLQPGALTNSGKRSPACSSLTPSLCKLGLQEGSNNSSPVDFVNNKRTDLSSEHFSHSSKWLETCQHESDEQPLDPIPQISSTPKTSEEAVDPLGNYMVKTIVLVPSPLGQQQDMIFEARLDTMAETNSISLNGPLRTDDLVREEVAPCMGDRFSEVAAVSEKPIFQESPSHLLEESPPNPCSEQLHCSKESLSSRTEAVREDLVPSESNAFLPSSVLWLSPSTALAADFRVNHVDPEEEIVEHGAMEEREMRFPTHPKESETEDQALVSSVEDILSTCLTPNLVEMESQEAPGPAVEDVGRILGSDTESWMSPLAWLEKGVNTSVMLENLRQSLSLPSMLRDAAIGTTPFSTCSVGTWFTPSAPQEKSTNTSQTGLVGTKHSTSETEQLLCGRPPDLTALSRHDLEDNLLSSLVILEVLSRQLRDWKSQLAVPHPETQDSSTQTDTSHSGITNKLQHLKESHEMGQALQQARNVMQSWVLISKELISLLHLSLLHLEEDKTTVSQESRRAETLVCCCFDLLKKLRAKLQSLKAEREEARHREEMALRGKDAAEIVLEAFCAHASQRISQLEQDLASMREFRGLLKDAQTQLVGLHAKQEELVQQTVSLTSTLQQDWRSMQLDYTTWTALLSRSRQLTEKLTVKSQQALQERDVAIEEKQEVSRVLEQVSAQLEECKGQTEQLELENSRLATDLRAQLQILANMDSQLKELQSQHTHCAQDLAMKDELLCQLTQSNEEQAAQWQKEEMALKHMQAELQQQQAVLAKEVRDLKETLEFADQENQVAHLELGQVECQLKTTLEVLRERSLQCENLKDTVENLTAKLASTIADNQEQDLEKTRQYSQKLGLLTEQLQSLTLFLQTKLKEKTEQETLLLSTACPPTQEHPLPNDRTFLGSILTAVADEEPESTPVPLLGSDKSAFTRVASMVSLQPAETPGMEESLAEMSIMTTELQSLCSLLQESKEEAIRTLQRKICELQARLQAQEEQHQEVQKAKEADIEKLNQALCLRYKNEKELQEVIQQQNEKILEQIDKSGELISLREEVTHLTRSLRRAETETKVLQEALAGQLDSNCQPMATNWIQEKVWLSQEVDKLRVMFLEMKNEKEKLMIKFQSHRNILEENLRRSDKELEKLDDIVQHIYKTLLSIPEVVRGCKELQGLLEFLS

Compound: Nc1nc2c(ncn2[C@@H]2O[C@H](COP(=O)(O)OP(=O)(O)OP(=O)(O)O)[C@@H](O)[C@H]2O)c(=O)[nH]1 [guanosine triphosphate]
Assay: NP40-soluble protein abundance relative to vehicle (solubility fold change) (ratio); higher = more soluble protein in presence of GTP
Procedure, shortened: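 Jurkat crude lysate prepared with a Dounce homogeniser was treated at eight concentrations spanning 0.1 to 10 mM, 10 min at room temperature then 3 min at 37 °C. Solubilisation with 0.8% NP40 and benzonase and ultracentrifugation preceded TMT labelling of the supernatant for LC-MS/MS. Fold change against the detergent-processed vehicle was determined per replicate from vsn-normalised intensities, across three independent experiments.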

Target	NP40-soluble protein abundance (concentration: 0.1mM)	NP40-soluble protein abundance (concentration: 0.5mM)	NP40-soluble protein abundance (concentration: 1mM)	NP40-soluble protein abundance (concentration: 2mM)	NP40-soluble protein abundance (concentration: 4mM)	NP40-soluble protein abundance (concentration: 6mM)	NP40-soluble protein abundance (concentration: 8mM)	NP40-soluble protein abundance (concentration: 10mM)
PRRC1 (UniProt Q96M27)	0.946 ± 0.045	0.947 ± 0.046	0.914 ± 0.073	0.898 ± 0.058	0.877 ± 0.084	0.88 ± 0.057	0.865 ± 0.079	0.878 ± 0.053
UniProt Q99707 and related entries	0.997 ± 0.019	1.01 ± 0.062	0.987 ± 0.015	1.01 ± 0.033	0.973 ± 0.022	0.965 ± 0.0072	0.928 ± 0.023	0.927 ± 0.029
TARS2 (UniProt Q9BW92)	1.02 ± 0.077	1.06 ± 0.1	1 ± 0.03	1.02 ± 0.087	0.988 ± 0.067	0.953 ± 0.055	0.921 ± 0.041	0.924 ± 0.087
UniProt Q96PE3 and related entries	1.06 ± 0.021	1.07 ± 0.079	0.945 ± 0.015	0.953 ± 0.048	0.948 ± 0.049	0.939 ± 0.04	0.907 ± 0.054	0.886 ± 0.081
NLN (UniProt Q9BYT8)	1.07 ± 0.088	1.05 ± 0.097	0.949 ± 0.04	0.971 ± 0.087	0.962 ± 0.074	0.933 ± 0.051	0.887 ± 0.036	0.858 ± 0.073
PPP1R10 (UniProt Q96QC0)	0.976 ± 0.029	0.99 ± 0.03	1.03 ± 0.036	1.04 ± 0.025	1.06 ± 0.029	1.096 ± 0.0059	1.13 ± 0.052	1.14 ± 0.05
MND1 (UniProt Q9BWT6)	0.801 ± 0.058	0.764 ± 0.027	0.901 ± 0.025	0.952 ± 0.054	0.885 ± 0.016	0.895 ± 0.08	0.817 ± 0.12	0.9206 ± 0.0042
ATAD5 (UniProt Q96QE3)	1.14 ± 0.1	0.98 ± 0.02	1.08 ± 0.025	1.12 ± 0.022	1.2 ± 0.038	1.17 ± 0.018	1.15 ± 0.051	1.12 ± 0.045
BDH2 (UniProt Q9BUT1)	0.993 ± 0.06	0.958 ± 0.062	0.966 ± 0.096	0.961 ± 0.047	0.95 ± 0.12	0.917 ± 0.073	0.915 ± 0.15	0.911 ± 0.12
UniProt Q96P11-2	1.04 ± 0.059	1.07 ± 0.051	1.04 ± 0.044	1.15 ± 0.053	1.19 ± 0.052	1.21 ± 0.068	1.19 ± 0.045	1.27 ± 0.07
UniProt Q9BXI6 and related entries	1.04 ± 0.017	0.983 ± 0.039	1 ± 0.035	0.982 ± 0.054	0.97 ± 0.077	0.929 ± 0.032	1.01 ± 0.033	0.957 ± 0.04
UniProt Q9BVI0 and related entries	1.11 ± 0.068	1.07 ± 0.12	1.19 ± 0.078	1.27 ± 0.057	1.52 ± 0.056	1.553 ± 0.012	1.77 ± 0.08	1.71 ± 0.071
UniProt Q99720 and related entries	1.09 ± 0.12	1.05 ± 0.071	0.888 ± 0.028	0.892 ± 0.09	0.836 ± 0.1	0.813 ± 0.12	0.788 ± 0.008	0.767 ± 0.15
UniProt Q96S55 and related entries	1 ± 0.044	1.01 ± 0.031	0.979 ± 0.047	1.01 ± 0.057	1.02 ± 0.057	1.02 ± 0.074	1.03 ± 0.086	1.02 ± 0.098
UniProt Q99871 and related entries	0.953 ± 0.053	0.935 ± 0.077	1.04 ± 0.044	1.01 ± 0.027	1.02 ± 0.083	0.993 ± 0.073	1 ± 0.13	0.979 ± 0.014
SF3B5 (UniProt Q9BWJ5)	1.1 ± 0.16	1.11 ± 0.16	1.17 ± 0.23	1.27 ± 0.2	1.25 ± 0.21	1.33 ± 0.15	1.31 ± 0.19	1.38 ± 0.22
MECR (UniProt Q9BV79)	1.02 ± 0.081	1.03 ± 0.082	0.967 ± 0.048	0.964 ± 0.087	0.976 ± 0.085	0.978 ± 0.066	0.962 ± 0.078	0.928 ± 0.065
UniProt Q9BV81	1.02 ± 0.068	0.951 ± 0.061	0.971 ± 0.037	1.01 ± 0.016	0.98 ± 0.067	0.966 ± 0.084	0.96 ± 0.076	0.992 ± 0.074
UniProt Q9BUE6 and related entries	0.951 ± 0.078	0.999 ± 0.051	0.97 ± 0.059	1.01 ± 0.025	0.949 ± 0.059	0.974 ± 0.046	0.917 ± 0.056	0.983 ± 0.027
GNB1L (UniProt Q9BYB4)	1 ± 0.031	1.01 ± 0.035	0.945 ± 0.066	0.939 ± 0.057	0.932 ± 0.055	0.919 ± 0.056	0.919 ± 0.072	0.911 ± 0.12
PIK3R4 (UniProt Q99570)	1.06 ± 0.045	0.982 ± 0.028	0.988 ± 0.027	0.993 ± 0.022	0.983 ± 0.018	0.966 ± 0.035	0.937 ± 0.038	0.904 ± 0.023
UniProt Q96NC0	0.912 ± 0.053	1 ± 0.078	0.981 ± 0.083	1 ± 0.079	0.974 ± 0.079	1.01 ± 0.079	1.03 ± 0.092	1.08 ± 0.078
UniProt Q96SN8 and related entries	1.02 ± 0.076	1.07 ± 0.051	1.1 ± 0.097	1.1 ± 0.035	1.18 ± 0.044	1.17 ± 0.04	1.2 ± 0.12	1.13 ± 0.08
ADI1 (UniProt Q9BV57)	0.911 ± 0.038	0.912 ± 0.024	0.913 ± 0.071	0.868 ± 0.041	0.85 ± 0.081	0.873 ± 0.083	0.818 ± 0.08	0.827 ± 0.061
PARK7 (UniProt Q99497)	0.906 ± 0.068	0.917 ± 0.085	0.914 ± 0.075	0.851 ± 0.089	0.848 ± 0.075	0.856 ± 0.089	0.851 ± 0.099	0.826 ± 0.081
PELO (UniProt Q9BRX2)	0.959 ± 0.059	1 ± 0.089	0.912 ± 0.048	0.918 ± 0.057	0.914 ± 0.057	0.973 ± 0.041	0.948 ± 0.078	0.968 ± 0.082
NCAPG (UniProt Q9BPX3)	0.992 ± 0.015	1.06 ± 0.016	0.986 ± 0.03	1.03 ± 0.044	0.978 ± 0.042	1.01 ± 0.047	0.987 ± 0.056	1.01 ± 0.031
UniProt Q9BV86	1 ± 0.049	1.02 ± 0.014	0.934 ± 0.025	0.93 ± 0.071	0.941 ± 0.053	0.888 ± 0.043	0.876 ± 0.12	0.881 ± 0.1
QTRT1 (UniProt Q9BXR0)	1.03 ± 0.07	1.05 ± 0.11	0.998 ± 0.057	1.01 ± 0.1	0.964 ± 0.11	0.976 ± 0.083	0.947 ± 0.05	0.959 ± 0.09
SPAG5 (UniProt Q96R06)	1.007 ± 0.0097	0.989 ± 0.024	1.01 ± 0.011	1 ± 0.015	1.02 ± 0.035	1.01 ± 0.035	1.02 ± 0.081	1.03 ± 0.086
